Earlier results, collected in article PMC3909768 (Journal of Cancer, 2014).

Target: GABA receptors
Conditions: read-out: IC50, GABA receptors; ref [6]; cited from earlier work

In the case of `CNC(=O)c1ccc(N2C(=S)N(c3ccc(C#N)c(C(F)(F)F)c3)C(=O)C2(C)C)cc1F` [MDV3100], the IC50 is given as 2700 nM.
